Laboratory results reported in publication PMC12900701.
These are yes or no findings as the source states them, for the method shown. For some assays here: Binding seen in cells or lysates may run through a third protein. Some results given as binding are weak or reduced against the parent protein; the word gives no strength. For some assays here: Tags and fused reporters may be left off the sequences shown.

Chains of the proteins cited; added tags and fusions are not shown.
UniProt P62068: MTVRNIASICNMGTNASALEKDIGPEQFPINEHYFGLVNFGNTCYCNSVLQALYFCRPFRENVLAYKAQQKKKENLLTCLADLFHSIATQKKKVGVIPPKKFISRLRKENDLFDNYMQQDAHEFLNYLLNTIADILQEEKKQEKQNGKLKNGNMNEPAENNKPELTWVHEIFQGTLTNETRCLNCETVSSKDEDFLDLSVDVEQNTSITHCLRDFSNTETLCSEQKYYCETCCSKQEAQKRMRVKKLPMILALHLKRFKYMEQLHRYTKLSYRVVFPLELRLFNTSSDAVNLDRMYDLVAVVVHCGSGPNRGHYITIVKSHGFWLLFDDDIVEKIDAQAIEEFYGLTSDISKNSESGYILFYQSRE

B1: POU4F1 (protein, UniProt Q01851 1-419)
chain: MMSMNSKQPHFAMHPTLPEHKYPSLHSSSEAIRRACLPTPPLQSNLFASLDETLLARAEALAAVDIAVSQGKSHPFKPDATYHTMNSVPCTSTSTVPLAHHHHHHHHHQALEPGDLLDHISSPSLALMAGAGGAGAAAGGGGAHDGPGGGGGPGGGGGPGGGPGGGGGGGPGGGGGGPGGGLLGGSAHPHPHMHSLGHLSHPAAAAAMNMPSGLPHPGLVAAAAHHGAAAAAAAAAAGQVAAASAAAAVVGAAGLASICDSDTDPRELEAFAERFKQRRIKLGVTQADVGSALANLKIPGVGSLSQSTICRFESLTLSHNNMIALKPILQAWLEEAEGAQREKMNKPELFNGGEKKRKRTSIAAPEKRSLEAYFAVQPRPSSEKIAAIAEKLDLKKNVVRVWFCNQRQKQKRMKFSATY
B2: His-tagged POU4F1 (protein, UniProt Q01851 1-419)
chain: B1 chain

Assays:
[1] = target: USP46 (USP46 FLAG group) (human) (UniProt P62068); experiment: co-IP; IP of USP46 from cell lysate with anti-USP46 antibody and Protein A/G magnetic beads, 4°C, 6 h; IP buffer 50 mM Tris-HCl, 150 mM NaCl, 5 mM EDTA, 1% NP-40, pH 7.4; immunoblot for POU4F1
GST-tagged USP46 (human) = GST-tagged USP46 (human) (UniProt P62068); experiment: pull-down; GST or GST fusion on Glutathione Sepharose 4B beads incubated with the His-tagged protein at 4°C for 4 h; washed three times with PBS with 0.1% Triton X-100; western blot with anti-His and anti-GST; both purified

Binder | binding [1] | binding (GST-tagged USP46 (human))
B1 | binds | 
B2 |  | binds
